Reference: PMC10787542
No constants are given. Whether binding was seen depends on the method and setting. In cells and extracts the contact can be indirect. Some results given as binding are weak or reduced against the parent protein; the word gives no strength. For some assays here: Tags and fused reporters may be left off the sequences shown.

B1: CHRAC1 overexpressed in MDA-MB-231 and Hela cells (protein, UniProt Q9NRG0 1-131)
chain: MADVVVGKDKGGEQRLISLPLSRIRVIMKSSPEVSSINQEALVLTAKATELFVQCLATYSYRHGSGKEKKVLTYSDLANTAQQSETFQFLADILPKKILASKYLKMLKEEKREEDEENDNDNESDHDEADS

Experiments:
Flag-tagged CHRAC1 = target: T1, Flag-tagged CHRAC1 (UniProt Q9NRG0); experiment: co-IP; lysates of 293T cells transfected with Flag-tagged CHRAC1 and HA-tagged YAP; agarose beads with Flag antibody or IgG control overnight at 4 °C; washed 4 times with NP40 buffer
T1 sequence: B1 chain

[1] = target: YAP in MDA-MB-231 and Hela cells (UniProt P46937); experiment: co-IP; CHRAC1 overexpressed MDA-MB-231 and Hela cells; YAP precipitated, CHRAC1 detected

Row | Molecule | binding (Flag-tagged CHRAC1) | binding [1]
1 | HA-tagged YAP (from UniProt P46937 1-504) | binds | –
2 | B1 | – | binds
